The supplement of paper PMC12823440, “Inhibitors supercharge kinase turnover through native proteolytic circuits” (Nature, 2025)
Counter-ions that a name gives are not always drawn. The list shows a part of the results. The calls rarely recur for the same compound in another form.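 Kinases were expressed as nanoluciferase fusions in K562 cells and luminescence was read every 4 h between 2 and 18 h as percent of control, DMSO set to 100% and a positive control to 0%. A time point counts as decreased when the signal drops significantly (2 sigma). The hit call is the authors' own, does not follow from the count of time points alone, and its rule is not shown.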

Protein sequences, listed by entry. Tags and fused reporters are not part of them.
UniProt P29317, whole entry: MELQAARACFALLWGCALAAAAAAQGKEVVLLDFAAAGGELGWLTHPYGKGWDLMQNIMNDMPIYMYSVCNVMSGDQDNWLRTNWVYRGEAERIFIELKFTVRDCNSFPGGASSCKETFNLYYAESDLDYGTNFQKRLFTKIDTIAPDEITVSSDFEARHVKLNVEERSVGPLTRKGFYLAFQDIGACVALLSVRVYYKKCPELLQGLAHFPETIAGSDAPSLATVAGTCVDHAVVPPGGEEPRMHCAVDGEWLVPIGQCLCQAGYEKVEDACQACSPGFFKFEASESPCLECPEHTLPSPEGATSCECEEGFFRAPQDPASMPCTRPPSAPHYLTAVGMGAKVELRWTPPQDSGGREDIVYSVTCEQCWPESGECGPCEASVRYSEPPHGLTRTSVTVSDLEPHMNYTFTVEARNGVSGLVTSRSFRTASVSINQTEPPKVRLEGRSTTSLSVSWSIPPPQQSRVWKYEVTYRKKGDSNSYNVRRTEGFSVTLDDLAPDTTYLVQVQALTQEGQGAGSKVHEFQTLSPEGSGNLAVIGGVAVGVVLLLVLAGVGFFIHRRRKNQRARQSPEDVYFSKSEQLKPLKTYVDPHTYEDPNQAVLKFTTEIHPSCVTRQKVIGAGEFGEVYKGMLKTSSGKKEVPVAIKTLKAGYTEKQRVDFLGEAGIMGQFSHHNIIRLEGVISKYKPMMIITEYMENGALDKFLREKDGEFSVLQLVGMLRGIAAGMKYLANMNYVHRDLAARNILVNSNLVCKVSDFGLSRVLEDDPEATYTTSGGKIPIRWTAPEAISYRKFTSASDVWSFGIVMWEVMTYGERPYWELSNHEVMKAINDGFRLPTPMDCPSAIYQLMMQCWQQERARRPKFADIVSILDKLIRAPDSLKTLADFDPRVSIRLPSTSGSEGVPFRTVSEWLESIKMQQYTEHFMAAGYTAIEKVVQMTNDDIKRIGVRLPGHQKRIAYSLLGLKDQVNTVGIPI
UniProt P21860, whole entry: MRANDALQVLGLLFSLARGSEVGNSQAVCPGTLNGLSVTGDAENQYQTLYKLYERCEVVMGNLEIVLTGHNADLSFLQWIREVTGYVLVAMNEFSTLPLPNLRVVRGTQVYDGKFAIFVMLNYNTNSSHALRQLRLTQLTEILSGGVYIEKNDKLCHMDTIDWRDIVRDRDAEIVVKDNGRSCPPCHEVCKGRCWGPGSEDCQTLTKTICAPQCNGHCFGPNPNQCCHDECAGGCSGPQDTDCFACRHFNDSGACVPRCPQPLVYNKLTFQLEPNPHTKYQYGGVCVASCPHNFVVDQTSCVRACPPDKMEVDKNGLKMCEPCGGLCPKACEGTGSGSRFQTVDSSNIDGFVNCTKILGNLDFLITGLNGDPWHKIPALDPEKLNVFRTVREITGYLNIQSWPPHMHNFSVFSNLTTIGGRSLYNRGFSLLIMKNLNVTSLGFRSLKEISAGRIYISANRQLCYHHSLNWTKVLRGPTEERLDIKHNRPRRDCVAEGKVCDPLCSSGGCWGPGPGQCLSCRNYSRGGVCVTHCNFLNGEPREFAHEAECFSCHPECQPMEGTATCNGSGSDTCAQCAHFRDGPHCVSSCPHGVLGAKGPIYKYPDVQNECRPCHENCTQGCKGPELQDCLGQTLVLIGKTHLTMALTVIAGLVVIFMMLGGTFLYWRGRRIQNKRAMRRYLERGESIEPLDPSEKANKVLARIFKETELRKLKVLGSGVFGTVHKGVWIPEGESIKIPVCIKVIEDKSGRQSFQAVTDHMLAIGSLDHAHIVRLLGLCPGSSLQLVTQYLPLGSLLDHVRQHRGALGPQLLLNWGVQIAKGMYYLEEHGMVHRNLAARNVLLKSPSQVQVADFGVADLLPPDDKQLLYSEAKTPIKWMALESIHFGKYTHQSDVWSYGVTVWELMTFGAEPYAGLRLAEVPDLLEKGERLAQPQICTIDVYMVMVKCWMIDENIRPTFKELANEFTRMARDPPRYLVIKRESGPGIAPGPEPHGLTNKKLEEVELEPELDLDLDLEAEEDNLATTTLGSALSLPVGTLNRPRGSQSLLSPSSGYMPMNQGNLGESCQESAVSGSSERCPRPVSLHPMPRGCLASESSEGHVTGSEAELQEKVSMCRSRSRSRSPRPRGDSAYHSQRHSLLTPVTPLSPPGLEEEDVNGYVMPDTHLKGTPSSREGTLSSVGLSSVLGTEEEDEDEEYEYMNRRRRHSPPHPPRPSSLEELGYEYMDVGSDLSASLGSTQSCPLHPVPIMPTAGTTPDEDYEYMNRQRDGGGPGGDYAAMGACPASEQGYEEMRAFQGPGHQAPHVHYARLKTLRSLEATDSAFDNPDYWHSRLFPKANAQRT
UniProt Q15303, whole entry R711C: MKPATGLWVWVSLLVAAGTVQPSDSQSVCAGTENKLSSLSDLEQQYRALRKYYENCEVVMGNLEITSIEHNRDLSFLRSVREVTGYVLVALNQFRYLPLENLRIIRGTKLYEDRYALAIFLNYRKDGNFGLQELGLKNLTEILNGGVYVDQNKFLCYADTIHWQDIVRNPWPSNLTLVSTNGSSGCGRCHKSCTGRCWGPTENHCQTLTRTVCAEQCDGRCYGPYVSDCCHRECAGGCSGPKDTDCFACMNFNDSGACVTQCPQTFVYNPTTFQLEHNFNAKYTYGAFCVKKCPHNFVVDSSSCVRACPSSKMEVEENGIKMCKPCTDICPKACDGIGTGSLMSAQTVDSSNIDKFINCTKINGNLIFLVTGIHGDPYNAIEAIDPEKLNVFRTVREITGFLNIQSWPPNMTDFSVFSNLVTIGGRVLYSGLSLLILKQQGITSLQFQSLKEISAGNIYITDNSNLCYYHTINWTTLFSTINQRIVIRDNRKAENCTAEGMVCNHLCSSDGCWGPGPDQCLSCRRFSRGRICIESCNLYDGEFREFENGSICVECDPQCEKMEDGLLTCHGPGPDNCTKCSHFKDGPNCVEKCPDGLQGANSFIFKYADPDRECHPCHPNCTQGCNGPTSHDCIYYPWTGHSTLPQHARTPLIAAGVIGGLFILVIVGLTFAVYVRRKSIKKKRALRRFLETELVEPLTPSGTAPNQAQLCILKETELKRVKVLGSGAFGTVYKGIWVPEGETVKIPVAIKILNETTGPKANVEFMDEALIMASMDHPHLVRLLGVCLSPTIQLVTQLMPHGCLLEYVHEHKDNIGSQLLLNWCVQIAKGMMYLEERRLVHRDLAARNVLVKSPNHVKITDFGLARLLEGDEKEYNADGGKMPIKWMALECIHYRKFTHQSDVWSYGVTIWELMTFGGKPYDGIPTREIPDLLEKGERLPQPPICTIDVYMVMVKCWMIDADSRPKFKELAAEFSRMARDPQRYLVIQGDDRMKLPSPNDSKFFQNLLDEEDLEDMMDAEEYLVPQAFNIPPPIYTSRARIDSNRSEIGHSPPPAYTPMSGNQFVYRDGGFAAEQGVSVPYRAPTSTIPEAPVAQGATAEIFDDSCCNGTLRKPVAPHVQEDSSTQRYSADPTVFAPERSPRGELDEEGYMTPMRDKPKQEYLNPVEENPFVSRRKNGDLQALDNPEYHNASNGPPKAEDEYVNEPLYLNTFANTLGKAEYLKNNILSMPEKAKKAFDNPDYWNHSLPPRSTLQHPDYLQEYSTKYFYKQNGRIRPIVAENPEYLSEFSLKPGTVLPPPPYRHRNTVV

Assays:
Assay in all cases: kinase-Nluc reporter destabilization hit call (1 = scored as downregulated) (binary); higher = compound decreases kinase abundance
Details in all cases: K562; 2-18 h
EGFR = EGFR (UniProt P00533)
EGFR_G719S = EGFR_G719S (UniProt P00533)
EGFR_G719S_T790M = EGFR_G719S_T790M (UniProt P00533)
EGFR_L718V = EGFR_L718V (UniProt P00533)
EGFR_L858R = EGFR_L858R (UniProt P00533)
EGFR_L861Q = EGFR_L861Q (UniProt P00533)
EGFR_T790M = EGFR_T790M (UniProt P00533)
EPHA2 = EPHA2 (UniProt P29317)
ERBB3 = ERBB3 (UniProt P21860)
[1] = biological target: ERBB4_R711C (clone: ERBB4_mut) (UniProt Q15303)

Structure (SMILES) | kinase-Nluc reporter destabilization hit call (EGFR) | kinase-Nluc reporter destabilization hit call (EGFR_G719S) | kinase-Nluc reporter destabilization hit call (EGFR_G719S_T790M) | kinase-Nluc reporter destabilization hit call (EGFR_L718V) | kinase-Nluc reporter destabilization hit call (EGFR_L858R) | kinase-Nluc reporter destabilization hit call (EGFR_L861Q) | kinase-Nluc reporter destabilization hit call (EGFR_T790M) | kinase-Nluc reporter destabilization hit call (EPHA2) | kinase-Nluc reporter destabilization hit call (ERBB3) | kinase-Nluc reporter destabilization hit call [1]
CN(C)c1ccc(-c2nc3ncc(Cl)c(N4CCN(CC(=O)Nc5nccs5)CC4)c3[nH]2)cc1 (2 µM) | inactive: 0 | inactive: 0 | inactive: 0 | inactive: 0 | inactive: 0 | inactive: 0 | inactive: 0 | inactive: 0 | inactive: 0 | inactive: 0
C[C@@H]1O[C@@H](Oc2cc(O)c3c(=O)c(O[C@@H]4O[C@@H](C)[C@H](O)[C@@H](O)[C@H]4O)c(-c4ccc(O)cc4)oc3c2)[C@H](O)[C@H](O)[C@H]1O [Kaempferitrin] (10 µM) | inactive: 0 | inactive: 0 | inactive: 0 | inactive: 0 | inactive: 0 | inactive: 0 | inactive: 0 | inactive: 0 | inactive: 0 | inactive: 0
O=C1NC(=O)/C(=C\c2c[nH]c(=O)c(-c3ccc(N4CCNCC4)nc3)c2)S1 [Protein kinase inhibitors 1 hydrochloride] (10 µM) | inactive: 0 | inactive: 0 | inactive: 0 | inactive: 0 | inactive: 0 | inactive: 0 | inactive: 0 | inactive: 0 | inactive: 0 | inactive: 0
O=c1cc(-c2ccccc2)oc2cc(O[C@@H]3O[C@H](CO[C@@H]4O[C@H](CO)[C@@H](O)[C@H](O)[C@H]4O)[C@@H](O)[C@H](O)[C@H]3O)c(O)c(O)c12 [Oroxin B] (10 µM) | inactive: 0 | inactive: 0 | inactive: 0 | inactive: 0 | inactive: 0 | inactive: 0 | inactive: 0 | inactive: 0 | inactive: 0 | inactive: 0
Nc1ncnc2c1nc(Br)n2[C@@H]1O[C@@H]2COP(=O)(O)O[C@H]2[C@H]1O [8-Bromo-cAMP sodium salt] (10 µM) | inactive: 0 | inactive: 0 | inactive: 0 | inactive: 0 | inactive: 0 | inactive: 0 | inactive: 0 | inactive: 0 | inactive: 0 | inactive: 0
Cn1c(=O)c2c(nc(S(C)(=O)=O)n2C)n(CC#Cc2cccc(O)c2)c1=O (2.5 µM) | inactive: 0 | inactive: 0 | inactive: 0 | inactive: 0 | inactive: 0 | inactive: 0 | inactive: 0 | inactive: 0 | inactive: 0 | inactive: 0
Cc1cc(-n2c(=O)ccc3c[nH]c4nccc-4c32)ccc1F (10 µM) | inactive: 0 | inactive: 0 | inactive: 0 | inactive: 0 | inactive: 0 | inactive: 0 | inactive: 0 | inactive: 0 | inactive: 0 | inactive: 0
NC(=O)c1ccc(N(C(N)=O)c2c(F)cccc2F)nc1-c1ccc(F)cc1F (10 µM) | inactive: 0 | inactive: 0 | inactive: 0 | inactive: 0 | inactive: 0 | inactive: 0 | inactive: 0 | inactive: 0 | inactive: 0 | inactive: 0
C#Cc1cccc(Nc2ncnc3cc(OC)c(NC(=O)N4C[C@H]5CCN(C)[C@H]5C4)cc23)c1 [Theliatinib] (10 µM) | inactive: 0 | inactive: 0 | inactive: 0 | inactive: 0 | inactive: 0 | inactive: 0 | inactive: 0 | inactive: 0 | inactive: 0 | inactive: 0
O=C1OC(/C=C/c2ccccc2)=NC/1=C\c1cccnc1 (10 µM) | inactive: 0 | inactive: 0 | inactive: 0 | inactive: 0 | inactive: 0 | inactive: 0 | inactive: 0 | inactive: 0 | inactive: 0 | inactive: 0
CCCCCc1ccc(/C=C/[C@H](O)[C@@H](CO)NC)cc1 [SK1-I (hydrochloride)] (10 µM) | inactive: 0 | inactive: 0 | inactive: 0 | inactive: 0 | inactive: 0 | inactive: 0 | inactive: 0 | inactive: 0 | inactive: 0 | inactive: 0
COC(=O)Nc1ccc(-c2nc(N3CCOCC3)c3cnn(C4CCN(Cc5cccnc5)CC4)c3n2)cc1 (10 µM) | inactive: 0 | inactive: 0 | inactive: 0 | inactive: 0 | inactive: 0 | inactive: 0 | inactive: 0 | inactive: 0 | inactive: 0 | inactive: 0
Cn1cc(-c2cc(Oc3cc(F)c(NC(=O)C4(C(=O)Nc5ccccc5)CC4)cc3F)ccn2)cn1 (2.5 µM) | inactive: 0 | inactive: 0 | inactive: 0 | inactive: 0 | inactive: 0 | inactive: 0 | inactive: 0 | inactive: 0 | inactive: 0 | inactive: 0
Cc1c(C)c(NCC(=O)N(C)C2CCN(Cc3ccc(C(N)=O)cc3)CC2)c(C)c(C)c1N (10 µM) | inactive: 0 | inactive: 0 | inactive: 0 | inactive: 0 | inactive: 0 | inactive: 0 | inactive: 0 | inactive: 0 | inactive: 0 | inactive: 0
CC1(N)CCN(c2cccnc2NC(=O)c2nc(-c3ncccc3C(F)(F)F)cnc2N)CC1 [Darovasertib] (10 µM) | inactive: 0 | inactive: 0 | inactive: 0 | inactive: 0 | inactive: 0 | inactive: 0 | inactive: 0 | inactive: 0 | inactive: 0 | inactive: 0
COC(=O)Nc1ccc(-c2nc(N3CCOCC3)c3cnn(C4CCN(C(=O)OC)CC4)c3n2)cc1 (10 µM) | inactive: 0 | inactive: 0 | inactive: 0 | inactive: 0 | inactive: 0 | inactive: 0 | inactive: 0 | inactive: 0 | inactive: 0 | inactive: 0
COc1ccc(Nc2ncc(C(F)(F)F)c(NC3CC3)n2)cc1OC (10 µM) | inactive: 0 | inactive: 0 | inactive: 0 | inactive: 0 | inactive: 0 | inactive: 0 | inactive: 0 | inactive: 0 | inactive: 0 | inactive: 0
Cc1cc(C(=O)Nc2nc3cccc(Cl)c3n2[C@@H]2CCCCN(C(=O)/C=C/CN(C)C)C2)ccn1 [Nazartinib] (10 µM) | inactive: 0 | inactive: 0 | inactive: 0 | inactive: 0 | inactive: 0 | inactive: 0 | inactive: 0 | inactive: 0 | inactive: 0 | inactive: 0
CNC(=O)c1ccc2c(c1)ncn2-c1ccc(CC(=O)OC(C)(C)C)cc1 (10 µM) | inactive: 0 | inactive: 0 | inactive: 0 | inactive: 0 | inactive: 0 | inactive: 0 | inactive: 0 | inactive: 0 | inactive: 0 | inactive: 0
Nc1nc(NCCNc2ncc(-n3ccnc3)c(-c3ccc(Cl)cc3Cl)n2)ccc1[N+](=O)[O-] (2.5 µM) | inactive: 0 | active: 1 | inactive: 0 | inactive: 0 | inactive: 0 | inactive: 0 | inactive: 0 | inactive: 0 | inactive: 0 | inactive: 0
CC(Cc1ccc(O)c(O)c1)C(C)Cc1ccc(O)c(O)c1 (stereo not given) [Nordihydroguaiaretic acid] (2.5 µM) | inactive: 0 | inactive: 0 | inactive: 0 | inactive: 0 | inactive: 0 | inactive: 0 | inactive: 0 | inactive: 0 | inactive: 0 | inactive: 0
Nc1nccc(-c2c(-c3ccc(F)cc3)ncn2C2CCCCC2)n1 (10 µM) | inactive: 0 | inactive: 0 | inactive: 0 | inactive: 0 | inactive: 0 | inactive: 0 | inactive: 0 | inactive: 0 | inactive: 0 | inactive: 0
COc1cc(N2CCOCC2)ccc1Nc1ncc(F)c(Nc2ccccc2NS(C)(=O)=O)n1 (10 µM) | inactive: 0 | inactive: 0 | inactive: 0 | inactive: 0 | inactive: 0 | inactive: 0 | inactive: 0 | inactive: 0 | inactive: 0 | inactive: 0
COc1cc2ncnc(Nc3ccc(O)c(Br)c3)c2cc1OC (10 µM) | inactive: 0 | inactive: 0 | inactive: 0 | inactive: 0 | inactive: 0 | inactive: 0 | inactive: 0 | inactive: 0 | inactive: 0 | inactive: 0
Nc1nc(N)c2nc(-c3cccc(O)c3)c(-c3cccc(O)c3)nc2n1 (10 µM) | inactive: 0 | inactive: 0 | inactive: 0 | inactive: 0 | inactive: 0 | inactive: 0 | inactive: 0 | inactive: 0 | inactive: 0 | inactive: 0
NC1(C(=O)NCCCn2cc(-c3ccc(OC(F)(F)F)cc3)c3cc(CN4CCN(Cc5c(Cl)cccc5Cl)CC4)ccc32)CCNCC1 (2.5 µM) | inactive: 0 | inactive: 0 | inactive: 0 | inactive: 0 | inactive: 0 | inactive: 0 | inactive: 0 | inactive: 0 | inactive: 0 | inactive: 0
O=c1cc(N2CCOCC2)oc2c(-c3ccc4c(c3)OCCO4)csc12 (2.5 µM) | inactive: 0 | inactive: 0 | inactive: 0 | inactive: 0 | inactive: 0 | inactive: 0 | inactive: 0 | inactive: 0 | inactive: 0 | inactive: 0
CC1CN(CC2CCN(Cc3ccccc3)CC2)C(=O)N(c2cccc(C(=N)N)c2)C1 (stereo not given) (10 µM) | inactive: 0 | inactive: 0 | inactive: 0 | inactive: 0 | inactive: 0 | inactive: 0 | inactive: 0 | inactive: 0 | inactive: 0 | inactive: 0
Cc1cc(C(=O)NC(C)(C)C)cc(C#Cc2ccc3c4c(oc3c2)C(C)(C)c2cc(NS(C)(=O)=O)ccc2C4=O)n1 (10 µM) | inactive: 0 | inactive: 0 | inactive: 0 | inactive: 0 | inactive: 0 | inactive: 0 | inactive: 0 | inactive: 0 | inactive: 0 | inactive: 0

Random excerpt: 2 entries already listed, in no set order.
Structure (SMILES) | kinase-Nluc reporter destabilization hit call (EGFR) | kinase-Nluc reporter destabilization hit call (EGFR_G719S) | kinase-Nluc reporter destabilization hit call (EGFR_G719S_T790M) | kinase-Nluc reporter destabilization hit call (EGFR_L718V) | kinase-Nluc reporter destabilization hit call (EGFR_L858R) | kinase-Nluc reporter destabilization hit call (EGFR_L861Q) | kinase-Nluc reporter destabilization hit call (EGFR_T790M) | kinase-Nluc reporter destabilization hit call (EPHA2) | kinase-Nluc reporter destabilization hit call (ERBB3) | kinase-Nluc reporter destabilization hit call [1]
Cc1c(C)c(NCC(=O)N(C)C2CCN(Cc3ccc(C(N)=O)cc3)CC2)c(C)c(C)c1N (10 µM) | inactive: 0 | inactive: 0 | inactive: 0 | inactive: 0 | inactive: 0 | inactive: 0 | inactive: 0 | inactive: 0 | inactive: 0 | inactive: 0
Cn1c(=O)c2c(nc(S(C)(=O)=O)n2C)n(CC#Cc2cccc(O)c2)c1=O (2.5 µM) | inactive: 0 | inactive: 0 | inactive: 0 | inactive: 0 | inactive: 0 | inactive: 0 | inactive: 0 | inactive: 0 | inactive: 0 | inactive: 0
